In PubChem BioAssay AID1347426 (Functional Genomics Laboratory (NCATS/FGL), 2020) one finds median seed-adjusted z-score data, which are given here for 108 sequences.

In all, about 31,000 sequences went through this assay and about 1,400 (4.5%) were called active.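 The calls were made as follows: active = median seed-adjusted z-score above 1 or below -1; inactive = the rest.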 Some of the results follow.

A short description of this test: Novel Modifiers of Survival Motor Neuron (SMN) Protein: Gene Identification via Genome-wide siRNA Screen.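 Also: luminescence tracks full-length SMN protein made from the SMN2 reporter.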 Particulars: HEK293T SMN2-luciferase reporter, siRNA knockdown, 72 h; actives lie on both sides. The procedure, abridged: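 HEK293T cells stably carrying an SMN2 promoter/splicing cassette–luciferase reporter were reverse-transfected with 1 pmol siRNA per well (druggable-genome library, 3 siRNAs per gene) and grown 72 h at 37 °C. Luminescence, normalized to negative-control siRNA and log10-transformed, was scored as MAD.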
On to GAACUGCCCUGAAGAUAUUTT against ERO1LB, for which the median seed-adjusted z-score is inactive: 0.565.
For GGAAGGACUUUGUCAAUAATT against AFG3L2 the value was inactive: 0.117; for CCGCUCUACGUGUACCUAUTT against GMPR2, inactive: 0.232; for GCCCAGAAGAGGUCACCUATT against CYP4F8, inactive: 0.756.
Take CCCUGGUCUUCAUGGAUGATT against GCAT: the median seed-adjusted z-score was inactive: 0.672.
Turning to CCUCAUGCACUGUUGAUUATT against IL6ST, the median seed-adjusted z-score was inactive: -0.518.
For UGAUUCUUGUGGUUCGAAATT against PTRH2 the value was inactive: 0.0467; for UGGACAGCCUGUCAACUUATT against NXPH3, inactive: 0.056; for GGGACACGCUAAAAGGAGATT against GNB4, inactive: 0.015.
With ACCGAGUUCAGCUCCGUAATT against KCNK7 the figure was inactive: 0.0523.
With GUGGUGCAGUUUUUCGUAATT against THOC2 the figure was active: -1.22.
With AGUCCCUCAUUAUCAUCAATT against LRRC15, the median seed-adjusted z-score is inactive: -0.723.
For CGGUGGAUUCUGAAAUGCATT against KRT35 the value was inactive: -0.1.
With CAGUCUACCUGUUUGACCATT against LMTK2 the figure was inactive: -0.565.
As for GUCGUGUGAUUGAAGCCUATT against MUC4, the median seed-adjusted z-score is inactive: 0.128.
On to CGGCCGGGAGUUUUUCGUATT against DDAH2, for which the median seed-adjusted z-score is inactive: -0.301.
As to CACUAUCAGUUGGAACAGATT against CD36, the median seed-adjusted z-score is inactive: -0.000845.
As for GGUGUUAACCAAACCGUUATT against SEPHS2, the median seed-adjusted z-score was inactive: -0.392.
With AGACCAUGAUGGGCAUAGATT against B3GALT5, the median seed-adjusted z-score is inactive: 0.144.
For GCCCUGUUUUUAUACACUUTT against DDX58 the value was inactive: -0.113; for GUAAGCUAAAUGUAUCUUATT against GSG2, inactive: 0.804.
Take CAAGGUCAAGUGCGAGAAATT against MAFB: the median seed-adjusted z-score is inactive: 0.674.
GUGUCGAUAUUGUCAUGAATT against TPT1: the median seed-adjusted z-score was inactive: 0.236.
For GGACCUCAGGGAUUAAUGATT against FOLR3 the value was inactive: 0.
With GCAGGAUUGAAGGAGUUCATT against ERAF the figure was inactive: 0.0453; with CGCGCCUCAUUAAACCAAATT against CSK, inactive: 0.993; with GAUAUACCCUGGAAAGUCUTT against CCNA2, inactive: 0.136.
With GGAUACAAGUGUCGAGGUUTT against PXDNL the figure was inactive: -0.186; with CCAAGUUUUGCUCCACAAATT against ZNF274, inactive: 0.452; with GCCGAAGACUAAUCAUUGUTT against IL18R1, inactive: -0.206.
Turning to CAGAAGCUUUAUGAACGAATT against SAP30BP, the median seed-adjusted z-score is inactive: -0.257.
As for GAAUCCUGAUGGGUAUGAATT against CPD, the median seed-adjusted z-score was inactive: -0.198.
For GAUUCGACAAGGCAAUACATT against RDX, the median seed-adjusted z-score was inactive: 0.123.
With UGUUCAUUCUGGUACCACATT against STYX the figure was inactive: 0.694; with GCUUGUCGAUAUAUAGUAUTT against DCP1A, inactive: 0.361; with GGAGUACGCUGAAGAAGGUTT against RECQL5, inactive: 0.
For CAGCAGACCUCAUUCCCUUTT against BEST4 the value was inactive: -0.207; for GCUGGAUCAUAUACAUGCATT against CNTN6, inactive: 0.
For GCUUUGAAACUACAGAUGATT against HNRNPA3 the value was inactive: 0.915.
Take GGAGUGCAGUCAUCACGUUTT against NMI: the median seed-adjusted z-score is inactive: 0.982.
For GGCUGGCUGAUAAAUUGUUTT against ZNF778 the value was inactive: 0.0459.
Regarding CAGGUACUCUAGAUGCUGATT against GPR179, the median seed-adjusted z-score is inactive: -0.513.
For CCUCUUCCGACAUCAGAAATT against ZNF275 the value was inactive: 0.315; for CCCACCAUGUUACAAGACATT against POLR2G, active: -4.19; for CAGUCCAGAUCGUCAACAATT against PTOV1, inactive: 0.115.
For CAAGAAAGGUAGAGAAUCATT against ZSCAN21 the value was inactive: 0.687; for CCGGAUCACCUGUUUGAAATT against PSMB3, inactive: -0.725.
GGCUUUUACCCGCACCAGATT against LGI4: the median seed-adjusted z-score is inactive: -0.239.
For CCAUCGGUGUUGACUUUAATT against RAB15 the value was inactive: -0.616; for GGAUCGAAUGGUUCAGGUUTT against OSBPL9, inactive: -0.958.
With AGAAGCUUCUAAUAAAUUATT against NKX2-1 the figure was inactive: 0.185; with GUAUCUGGAUAGUCGUAAATT against SYPL1, inactive: -0.457.
With GCAACGUGCAGAUAGUCAATT against ITIH3 the figure was inactive: 0.
CCAGUACCAAAGAUAAAGATT against SLC16A10: the median seed-adjusted z-score was inactive: -0.205.
With GACCCAGUCUAUUAAAGAATT against BRCA1 the figure was inactive: -0.0302; with GAUUGUUUCGGGUAUUUAUTT against HMX2, inactive: -0.547.
With CCUCAACCUCGAUCAAGUATT against CSF1R the figure was inactive: 0.38; with GGAUCCUAAGCUUUGAUAATT against HPR, inactive: 0.237; with GGUAUAAUCCAGUUACCAATT against CPD, inactive: -0.198.
In the case of GACUGGAUCCCAACGAUUATT against PCDHA13, the median seed-adjusted z-score was inactive: -0.624.
For GGAAUACCUCAAUAGCAUUTT against SMARCA4 the value was inactive: 0.223; for CUGUUCUCCUUAAAACGAATT against RBM34, inactive: 0.
For GCACCUUCCUAGUCACUCATT against HSD17B8 the value was inactive: 0.411; for CCAGAGCAAAGGCUAUGAATT against ZNF350, inactive: 0.133; for GGGUCACAGAGGUCGAUAUTT against PDILT, inactive: -0.0994.
For CACUACUAAAAACCUAAAATT against EFHD2 the value was inactive: 0.874; for GAGCAAUAGGAUUUUAAUATT against SLC39A5, inactive: -0.311.
On to GAUCUAACGUGGUUUCACATT against B3GALT6, for which the median seed-adjusted z-score was inactive: 0.169.
In the case of GAGCCCAUCCUGACCUACATT against KCNC4, the median seed-adjusted z-score was inactive: -0.433.
With GCUAGUCACAAUGCAGAUATT against RAB7A the figure was inactive: 0.169.
With GCAGAUGCAUAUUAUGAAATT against IMPA1 the figure was inactive: -0.295; with CUUUCAACGAAGUCUAAAATT against ABCA5, inactive: -0.376; with GGCUGGACAGUAAUUCAGATT against ANGPTL4, active: 1.37.
For GGGUGAAAACAAGUCUGAATT against POU1F1 the value was inactive: 0.5.
On to CAGCAGUUCUUUGGAUUAATT against TAC1, for which the median seed-adjusted z-score is inactive: 0.0499.
For AGAUGGAAGCGAAAACUGATT against NFATC1 the value was inactive: 0.00712; for UCUGCAUACUGCAAUCUGATT against RASL10B, inactive: -0.377.
With CUUGCUCCGUGAUGUCUUUTT against BID the figure was inactive: 0.342; with CAUUCGGAUUUAUGACAGUTT against NMT2, inactive: 0.494.
As for CUAAAUACAUUUGAAGUCATT against DCTN6, the median seed-adjusted z-score was inactive: 0.211.
For GCCUUAUUGUUACAUGGUUTT against SLC19A2 the value was inactive: -0.679; for GCCCGUUCCAAGUCUGUGATT against USP21, inactive: 0.248.
Regarding CAUCGUCUCUUACUGGUUUTT against CPEB4, the median seed-adjusted z-score was inactive: -0.53.
Turning to AGAGAGUGGUUUUUCCUCCTT against WWP2, the median seed-adjusted z-score was inactive: -0.685.
For GGACCAACAACUUCAUCAUTT against GGT7 the value was inactive: 0.135; for GCAAUUUGCUGUUGCCGAATT against RHBDD1, inactive: 0.00277; for AGAACUACACGGAGAAGUUTT against MMP15, inactive: -0.0489.
With CCUCUAAACUGGUACCGAATT against EPHX2 the figure was inactive: 0; with GGUACUCCAUAUACAGGUATT against GART, inactive: -0.414.
As for CGCUUUGCUUCGUUGUUCATT against NR1D1, the median seed-adjusted z-score was inactive: -0.301.
For GCAUCAGCGUGCUCUUGUATT against SLC8A3 the value was inactive: -0.0434; for CUAGUGAUAUCUCCAAUUATT against REV3L, inactive: 0.062.
With GCUUCUCUGCUACGUCGUATT against MMD2 the figure was inactive: -0.0908.
As for CUAAGAAACUCCAAUUUUATT against JAK3, the median seed-adjusted z-score was inactive: -0.0926.
With GGAUAGAGGUUCGUUUGAATT against PRKG1 the figure was inactive: 0; with GCCGACAUUUGGACACAGATT against HSPB2, inactive: 0.247.
For GGAUGAGAAGGAUAAUGAUTT against IRF6 the value was active: -1.79.
With UGAGCUACAUAAAUUCCUATT against RAB22A the figure was inactive: 0.321; with CAACCACACUGUUGCUUUUTT against PLXNB2, inactive: -0.237.
With GAAACUCCGAGCGAUUUAATT against SHH, the median seed-adjusted z-score is inactive: -0.517.
For CGCUAUCCAUUAAACAUCATT against RRH the value was inactive: -0.0112.
Regarding CCUCAACCCUAAAUGGACATT against ZNF91, the median seed-adjusted z-score was inactive: 0.105.
With CGAUGGACUAAGUAAUAUATT against KPNA4 the figure was inactive: 0.457.
In the case of GAAUCUCGGCUUUAUGGAATT against SLC25A17, the median seed-adjusted z-score is inactive: 0.0311.
For UGUAAUUUAUUGUUGCGUUTT against FZD9 the value was inactive: -0.0532; for AAAUCUCAAUGGUCGCUAUTT against FCN3, inactive: -0.112; for CUAGACUUCUUACAAGACATT against PIP5K1A, inactive: 0.0924.
With CCCUAUCAGUUACUACUAATT against PDE6H the figure was inactive: -0.0647.
